This is an account of results in publication PMC4821352.

These are yes or no findings as the source states them, for the method shown. Binding seen in cells or lysates may run through a third protein. Sequences can lack the tags named with a protein.

For this experiment, the target named is Myc-tagged centrin 4 (rat). Put plainly: co-IP; transfected HEK293T cells solubilized in IP buffer (20 mM Tris-HCl pH 7.4, 150 mM NaCl, 1% Triton X-100, 0.5% Na-deoxycholate, 0.1% SDS, 1 mM EDTA); 16 h at 4 °C with antibody-coated protein A/G sepharose beads; immunoblot. (In general: In western blotting, separated proteins are transferred to a membrane and probed.)

B1: GFP-rEag2 (protein, UniProt Q9EPI9 1-988)
chain: MPGGKRGLVAPQNTFLENIVRRSSESSFLLGNAQIVDWPVVYSNDGFCKLSGYHRADVMQKSSTCSFMYGELTDKKTIEKVRQTFDNYESNCFEVLLYKKNRTPVWFYMQIAPIRNEHEKVVLFLCTFKDITLFKQPIEDDSTKGWTKFARLTRALTNSRSVLQQLTPMNKTETVHKHSRLAEVLQLGSDILPQYKQEAPKTPPHIILHYCAFKTTWDWVILILTFYTAIMVPYNVSFKTKQNNIAWLVLDSVVDVIFLVDIVLNFHTTFVGPGGEVISDPKLIRMNYLKTWFVIDLLSCLPYDIINAFENVDEGISSLFSSLKVVRLLRLGRVARKLDHYLEYGAAVLVLLVCVFGLVAHWLACIWYSIGDYEVIDEVTNTIQIDSWLYQLALSIGTPYRYNTSAGIWEGGPSKDSLYVSSLYFTMTSLTTIGFGNIAPTTDVEKMFSVAMMMVGSLLYATIFGNVTTIFQQMYANTNRYHEMLNNVRDFLKLYQVPKGLSERVMDYIVSTWSMSKGIDTEKVLSICPKDMRADICVHLNRKVFNEHPAFRLASDGCLRALAVEFQTIHCAPGDLIYHAGESVDALCFVVSGSLEVIQDEEVVAILGKGDVFGDIFWKETTLAHACANVRALTYCDLHIIKREALLKVLDFYTAFANSFSRNLTLTCNLRKRIIFRKISDVKKEEEERLRQKNEVTLSIPVDHPVRKLFQKFKQQKELRNQGSAQSDPERSQLQVESRPLQNGASITGTSVVTVSQITPIQTSLAYVKTSETLKQNNRDAMELKPNGGAEPKCLKVNSPIRMKNGNGKGWLRLKNNMGAHEEKKEEWNNVTKAESMGLLSEDPKGSDSENSVTKNPLRKTDSCDSGITKSDLRLDKAGEARSPLEHSPSQADAKHPFYPIPEQALQTTLQEVKHELKEDIQLLSCRMTALEKQVAEILKLLSEKSVPQTSSPKPQIPLQVPPQIPCQDIFSVSRPESPESDKDEINF
For the molecule B1, the binding entry was “no binding”.
